In article PMC11784013, “Potassium molybdate blocks APN-dependent coronavirus entry by degrading receptor via PIK3C3-mediated autophagy” (Journal of Virology, 2024):
No constants are given. Whether binding was seen depends on the method and setting. In cells and extracts the contact can be indirect. Some results given as binding are weak or reduced against the parent protein; the word gives no strength.

Amino acid sequences for entries named in this document (tags omitted).
UniProt Q4A1L5: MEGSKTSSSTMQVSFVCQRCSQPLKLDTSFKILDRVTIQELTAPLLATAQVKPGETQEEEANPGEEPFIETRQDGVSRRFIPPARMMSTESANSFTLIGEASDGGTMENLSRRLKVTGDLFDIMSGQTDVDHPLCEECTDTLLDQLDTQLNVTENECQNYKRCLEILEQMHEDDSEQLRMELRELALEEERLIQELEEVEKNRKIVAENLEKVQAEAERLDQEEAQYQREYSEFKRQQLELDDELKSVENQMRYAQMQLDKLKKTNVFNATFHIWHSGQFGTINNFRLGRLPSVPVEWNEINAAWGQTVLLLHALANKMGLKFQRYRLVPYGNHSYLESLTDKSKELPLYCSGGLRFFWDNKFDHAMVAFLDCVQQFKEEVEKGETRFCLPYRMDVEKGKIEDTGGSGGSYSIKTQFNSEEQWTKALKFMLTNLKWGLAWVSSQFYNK
UniProt F1SSN7: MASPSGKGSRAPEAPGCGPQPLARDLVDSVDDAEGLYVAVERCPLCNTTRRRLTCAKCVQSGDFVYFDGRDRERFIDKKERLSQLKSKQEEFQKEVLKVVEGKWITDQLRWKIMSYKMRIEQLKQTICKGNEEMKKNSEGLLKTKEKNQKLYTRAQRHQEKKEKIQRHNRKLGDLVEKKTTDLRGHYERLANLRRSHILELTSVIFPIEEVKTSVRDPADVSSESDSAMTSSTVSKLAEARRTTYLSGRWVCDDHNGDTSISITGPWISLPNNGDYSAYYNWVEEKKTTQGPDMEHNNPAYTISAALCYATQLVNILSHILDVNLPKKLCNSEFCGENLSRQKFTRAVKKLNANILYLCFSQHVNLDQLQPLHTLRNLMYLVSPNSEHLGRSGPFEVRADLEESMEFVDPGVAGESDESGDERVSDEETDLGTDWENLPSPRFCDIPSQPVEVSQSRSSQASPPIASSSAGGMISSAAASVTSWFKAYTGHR

Experiments:
[1] = molecular target: Flag-BECN1 (porcine Beclin-1) (porcine) (UniProt Q4A1L5); experiment: co-IP
[2] = molecular target: His-ATG14 (porcine autophagy-related gene 14) (porcine) (UniProt F1SSN7); experiment: co-IP

## His-ATG14 (porcine autophagy-related gene 14) (from UniProt F1SSN7 1-492)
[1]
  binding: binds

## Flag-BECN1 (porcine Beclin-1) (from UniProt Q4A1L5 1-448)
[2]
  binding: binds
